{"source": "PubChem BioAssay AID1508597 (Cure First, 2020)", "screen": "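Genes whose silencing sensitises or protects ovarian cancer cells against rucaparib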 (primary screen)", "cells": "human ovarian carcinoma lines grown from tumours: OCI-P5x (papillary serous) and OCI-C5x (clear cell)", "knock-down reagent": "siRNA pool against human genes, 1.25 pmol siRNA per well", "time to read-out": "72 h or 96 h, depending on the cell culture", "conditions": "rucaparib 20 µM (about IC30) or vehicle, present until read-out", "rucaparib or vehicle": "Rucaparib", "cell line": "OCI-P5x (serous)", "read-out": "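Luminescent ATP-based viability assay read 72 or 96 h after transfection, depending on culture, given as normalised percent viability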", "direction": "viability, normalised: higher = more viable cells remaining", "call rule": "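a well counts as a hit if its normalised viability is under 80 percent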", "meaning of the calls": "active = viability under 80%; inactive = viability 80% or more", "note": "This is an unselected part of the about 2,100 reagents, under one of the conditions tested. 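Calls flag viability under 80% in either arm, not effects specific to rucaparib; the reference for percent is not stated.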 Entries without a mark were called inactive. A reagent listed more than once was tested more than once; the source does not tell the runs apart. No sequences are given here. The record does not give: the 100% reference."}
{"gene symbol":"STK17B","technical replicate":"1","viability, normalised (%)":161}
{"gene symbol":"STK17B","technical replicate":"2","viability, normalised (%)":107}
{"gene symbol":"STK17B","technical replicate":"3","viability, normalised (%)":129}
{"gene symbol":"RAPGEF3","technical replicate":"1","viability, normalised (%)":95.2}
{"gene symbol":"RAPGEF3","technical replicate":"2","viability, normalised (%)":108}
{"gene symbol":"RAPGEF3","technical replicate":"3","viability, normalised (%)":106}
{"gene symbol":"SETMAR","technical replicate":"1","viability, normalised (%)":"51.7 (active)"}
{"gene symbol":"SETMAR","technical replicate":"1","viability, normalised (%)":125}
{"gene symbol":"SETMAR","technical replicate":"2","viability, normalised (%)":144}
{"gene symbol":"SETMAR","technical replicate":"2","viability, normalised (%)":"69.2 (active)"}
{"gene symbol":"SETMAR","technical replicate":"3","viability, normalised (%)":123}
{"gene symbol":"SETMAR","technical replicate":"3","viability, normalised (%)":"59.5 (active)"}
{"gene symbol":"KMT2A","technical replicate":"1","viability, normalised (%)":"40.6 (active)"}
{"gene symbol":"KMT2A","technical replicate":"2","viability, normalised (%)":"36.8 (active)"}
{"gene symbol":"KMT2A","technical replicate":"3","viability, normalised (%)":"41.2 (active)"}
{"gene symbol":"PHF7","technical replicate":"1","viability, normalised (%)":"53.7 (active)"}
{"gene symbol":"PHF7","technical replicate":"2","viability, normalised (%)":"58 (active)"}
{"gene symbol":"PHF7","technical replicate":"3","viability, normalised (%)":"54.2 (active)"}

Next part, starting with the last 2 of the part before.
{"gene symbol":"PHF7","technical replicate":"2","viability, normalised (%)":"58 (active)"}
{"gene symbol":"PHF7","technical replicate":"3","viability, normalised (%)":"54.2 (active)"}
{"gene symbol":"YTHDC2","technical replicate":"1","viability, normalised (%)":91.5}
{"gene symbol":"YTHDC2","technical replicate":"2","viability, normalised (%)":83.5}
{"gene symbol":"YTHDC2","technical replicate":"3","viability, normalised (%)":"53 (active)"}
{"gene symbol":"AIPL1","technical replicate":"1","viability, normalised (%)":"78.3 (active)"}
{"gene symbol":"AIPL1","technical replicate":"2","viability, normalised (%)":"77.9 (active)"}
{"gene symbol":"AIPL1","technical replicate":"3","viability, normalised (%)":"76.9 (active)"}
{"gene symbol":"MAP3K10","technical replicate":"1","viability, normalised (%)":107}
{"gene symbol":"MAP3K10","technical replicate":"2","viability, normalised (%)":107}
{"gene symbol":"MAP3K10","technical replicate":"3","viability, normalised (%)":120}
{"gene symbol":"NUAK1","technical replicate":"1","viability, normalised (%)":88}
{"gene symbol":"NUAK1","technical replicate":"2","viability, normalised (%)":"78.5 (active)"}
{"gene symbol":"NUAK1","technical replicate":"3","viability, normalised (%)":"64.3 (active)"}
{"gene symbol":"SIK2","technical replicate":"1","viability, normalised (%)":87.1}
{"gene symbol":"SIK2","technical replicate":"2","viability, normalised (%)":"75.6 (active)"}
{"gene symbol":"SIK2","technical replicate":"3","viability, normalised (%)":"75.9 (active)"}
